Results taken from publication PMC6765184.
No constants are given. Whether binding was seen depends on the method and setting. For some assays here: In cells and extracts the contact can be indirect. Some entries that bind do so weakly or less than the wild type. Tags and fused reporters may be left off the sequences shown.

B1: Klp5-5FLAG (wild type) (protein, UniProt O14343 1-883)
chain: MSRQSSITVTVRVRPFSTAESANLIASSDRLSFGTSSSLRNPGSGRQIRRVVKVLDGRVLVFDPPDETTATLSATNRRLSTSQQSLARLSRKSNNSAGFGRDLRYAFDRVFDETATQQQVYERTARPLLDNILDGFNATIFAYGATGCGKTHTISGTMQDPGLIYLTLKELFERMDHLRDEKIFDLRLSYLEIYNETIRDLLVSPTPNQAKPLNLREDADRRITVPGLTSLSPESLEEIIDIIMKGNANRTMSPTEANAASSRSHAVLQVTLIQKPRTAGINEDHTLATLSIIDLAGSERATATKLRGSRLFEGANINKSLLALGNCINALCDPHRRAHVPYRDSKLTRLLKFSLGGNCRTVMIVCVSPSSVHYEETHNTLKYANRAKNIKTEVLRNMISVDRHVSQYVKAIVELREQISELENRLAQIDLSSQSNGSDQDAVTQSFAHESKLAEARNLLRMTFEETLPLQNDTINKVEKVKHFDDSIRVLKYWLSCYERILPNSADERVFLVRSKLESLLTRRAEIIADIDPELVYQKFQRSVSHIINTYKQEGATMYADVLQDEVDLLKSIIENQVLDAQNKVDEFTPVLESLLRSSFKASSLLKEGGMQELFSILEKWLLGIGLGEKPNISVLSESYKLNSTSDDSRTINRDRVHSFPTQPLLNNNLPRMFFVKSPKKPVVFSKRSPKKRVRFDDSMSTSDSGASAYNSPIQTSKLKNMNFFNTMHMPSTPAHKRPENKNQIDVEINLTSPVSPMLEDKPEPGLLIKSPLEKKQEVNSESTQLDQLLAEDSSTDDVSLPHLDTIDLDGSPVPKVPDLNFSRANMDSPTFILNNEAIHNFDFSKPKTRQSLSSLTTLHLSNPANIIRKSLSMAENEEEKAT
B2: Klp6-msfGFP (recombinant, full length) (protein, UniProt O59751 1-784)
chain: MKEGSSISVAVRVRPFTEREKGLLAETPKSKEFLGDGSLAVSNTSSNTFCTNGIRKIVRVLDDNVLIFDPPEENPLAKVQKSLLPAGKRFRDVRYAFDRLFGEEASQEDVYKGTTEPLLDSVLQGYNATVFAYGATGCGKTHTISGRPDDPGIIFLTMRALLDRVEGLKRTMNVDISVSYLEIYNEKIRDLLVQDPLSMEKPKSLNICEDAEQNVSVPGLSYFTPTNLEEVMEIIIRGNSNRTMSPTEANAVSSRSHAVLQIYITQTPKSGEKQEESESQNSHKVRSVFSFIDLAGSERASATKNRGKRLVEGANINRSLLALGNCINSLCEPRRRQHVPYRDSKLTRLLKFSLGGNCRTCMIVCISPSSEHYDETHNTLKYGNRAKNIKTKVSRNVVSVDRHVSEYVRTIYELRQKVSILQKRIAEESKQLALNKEVRKISSREIKMLDARSMLKNSFDGSRDLQKSLIEHVRTLRRIEDEITLTKMWISIAKESDAMSGHNIKSVETRLAKLYDQRSLITAKVNPEEICKTFQNSISHIVSSFKGEGADMYADMLQDDVDLLKSIIENQILDAKHESETFSSTSRKLIQNLFLLFPLLPGNAIDVNESLARAFDQLVGIVPSEPTIQVPNLIEKGKAPLLSMFEIPRSPSRFKARSPSKAARVLKKPLKKRVRFSEVPTTSSVPPVEIKNKDSKPKVEKSLDKHNMNNDRSFLVPSRDARNSLTSLSLHSNVAKNKSSHSSKWPTHTLSPIITTALKQPVRRISLVSQPLQKTGGTENTPNA

Experiments:
Klp6-GFP (S. pombe) = target: T1, Klp6-GFP (S. pombe) (UniProt O59751); assay: co-IP; Klp6-GFP precipitated with magnetic GFP-trap from 2.8 mg S. pombe whole cell extract, 1.5 h at 4°C, IP buffer (50 mM Tris-HCl pH 7.4, 1 mM EDTA, 150 mM NaCl, 0.05% NP-40, 10% glycerol); blot with anti-FLAG and anti-GFP
T1 sequence: B2 chain

[1] = target: T2, Klp5-HA (recombinant, full length) (S. pombe) (UniProt O14343); assay: SEC; co-expressed in E. coli; complex held on IgG Sepharose by protein A on Klp5, cut off with PreScission protease, then Superose-6 gel filtration in LEW buffer (50 mM HEPES pH 7.5, 300 mM KCl) at 4°C
T2 sequence: B1 chain

| Binder | binding (Klp6-GFP (S. pombe)) | binding [1] |
| --- | --- | --- |
| B1 | binds | – |
| B2 | – | binds |
